Measured values reported in PMC5572376.
No constants are given. Whether binding was seen depends on the method and setting. Some binding calls cover weakened binding; strength is not graded here.

Amino acid sequences for entries named in this document (tags omitted).
UniProt P99110: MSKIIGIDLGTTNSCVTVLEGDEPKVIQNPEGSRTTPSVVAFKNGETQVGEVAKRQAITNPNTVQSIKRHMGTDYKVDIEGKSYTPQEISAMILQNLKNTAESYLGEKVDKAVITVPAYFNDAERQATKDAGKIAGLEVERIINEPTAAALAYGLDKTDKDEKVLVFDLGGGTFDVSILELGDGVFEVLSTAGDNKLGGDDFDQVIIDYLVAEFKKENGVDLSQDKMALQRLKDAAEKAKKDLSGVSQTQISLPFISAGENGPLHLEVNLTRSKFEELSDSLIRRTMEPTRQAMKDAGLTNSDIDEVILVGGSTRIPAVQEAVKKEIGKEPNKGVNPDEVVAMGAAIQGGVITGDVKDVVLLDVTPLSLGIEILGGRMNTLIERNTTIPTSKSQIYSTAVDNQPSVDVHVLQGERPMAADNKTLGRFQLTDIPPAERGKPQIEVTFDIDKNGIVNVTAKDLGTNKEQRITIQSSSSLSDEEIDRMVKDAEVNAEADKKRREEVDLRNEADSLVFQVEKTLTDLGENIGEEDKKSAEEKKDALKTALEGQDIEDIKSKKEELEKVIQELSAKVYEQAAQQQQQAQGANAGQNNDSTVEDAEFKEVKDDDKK
UniProt P0A031: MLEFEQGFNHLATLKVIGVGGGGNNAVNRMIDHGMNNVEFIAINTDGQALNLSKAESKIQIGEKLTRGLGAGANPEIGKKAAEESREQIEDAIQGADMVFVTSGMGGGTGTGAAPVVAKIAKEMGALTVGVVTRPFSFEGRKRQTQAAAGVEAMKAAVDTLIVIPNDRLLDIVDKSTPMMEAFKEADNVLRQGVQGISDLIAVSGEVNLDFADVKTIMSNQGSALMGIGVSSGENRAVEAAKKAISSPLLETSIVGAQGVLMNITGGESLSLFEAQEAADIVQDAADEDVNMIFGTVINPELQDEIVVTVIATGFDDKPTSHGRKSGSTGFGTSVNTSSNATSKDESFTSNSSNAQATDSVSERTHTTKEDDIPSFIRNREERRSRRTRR

Target: DnaK (bacterial two-hybrid fusion) (S. aureus) (UniProt P99110)
Experiment: two-hybrid; bacterial two-hybrid (BACTH, T18/T25 adenylate cyclase fusions) in E. coli BTH101; beta-galactosidase activity judged qualitatively by blue colour on X-Gal

binding: binds
Substance: FtsZ (bacterial two-hybrid fusion) (from UniProt P0A031 1-390)
